{"source": "patent US20160136109A1", "about": "“COMPOSITIONS FOR TISSUE STABILIZATION” (Vatrix Medical, Inc., priority 2008, published 2016)", "system": "porcine suprarenal thoracic aorta", "assay": "Ring opening angle of treated aorta rings (Example 6)", "settings": "25 min at 37° C.", "data": [{"smiles": "O=CCCCC=O", "note": "[Glut, Glutaraldehyde]", "values": [{"measurement": "sequence of the opening angles", "setting": "0.02% Glut", "value": "Fresh (control)>lo Glut>PGG>PGG+lo Glut>hi Glut>PGG+hi Glut"}, {"measurement": "sequence of the opening angles", "setting": "0.20% Glut", "value": "Fresh (control)>lo Glut>PGG>PGG+lo Glut>hi Glut>PGG+hi Glut"}]}]}
